# Experimental data published in the supplement of paper PMC12067093, “Discovery and optimisation of a covalent ligand for TRIM25 and its application to targeted protein ubiquitination” (Chemical Science, 2025).
# Protein sequences, listed by entry. Tags and fused reporters are not part of them. Lines headed by an entry give the natural chain unless they say otherwise; changes in a name come on top.
# UniProt P49454: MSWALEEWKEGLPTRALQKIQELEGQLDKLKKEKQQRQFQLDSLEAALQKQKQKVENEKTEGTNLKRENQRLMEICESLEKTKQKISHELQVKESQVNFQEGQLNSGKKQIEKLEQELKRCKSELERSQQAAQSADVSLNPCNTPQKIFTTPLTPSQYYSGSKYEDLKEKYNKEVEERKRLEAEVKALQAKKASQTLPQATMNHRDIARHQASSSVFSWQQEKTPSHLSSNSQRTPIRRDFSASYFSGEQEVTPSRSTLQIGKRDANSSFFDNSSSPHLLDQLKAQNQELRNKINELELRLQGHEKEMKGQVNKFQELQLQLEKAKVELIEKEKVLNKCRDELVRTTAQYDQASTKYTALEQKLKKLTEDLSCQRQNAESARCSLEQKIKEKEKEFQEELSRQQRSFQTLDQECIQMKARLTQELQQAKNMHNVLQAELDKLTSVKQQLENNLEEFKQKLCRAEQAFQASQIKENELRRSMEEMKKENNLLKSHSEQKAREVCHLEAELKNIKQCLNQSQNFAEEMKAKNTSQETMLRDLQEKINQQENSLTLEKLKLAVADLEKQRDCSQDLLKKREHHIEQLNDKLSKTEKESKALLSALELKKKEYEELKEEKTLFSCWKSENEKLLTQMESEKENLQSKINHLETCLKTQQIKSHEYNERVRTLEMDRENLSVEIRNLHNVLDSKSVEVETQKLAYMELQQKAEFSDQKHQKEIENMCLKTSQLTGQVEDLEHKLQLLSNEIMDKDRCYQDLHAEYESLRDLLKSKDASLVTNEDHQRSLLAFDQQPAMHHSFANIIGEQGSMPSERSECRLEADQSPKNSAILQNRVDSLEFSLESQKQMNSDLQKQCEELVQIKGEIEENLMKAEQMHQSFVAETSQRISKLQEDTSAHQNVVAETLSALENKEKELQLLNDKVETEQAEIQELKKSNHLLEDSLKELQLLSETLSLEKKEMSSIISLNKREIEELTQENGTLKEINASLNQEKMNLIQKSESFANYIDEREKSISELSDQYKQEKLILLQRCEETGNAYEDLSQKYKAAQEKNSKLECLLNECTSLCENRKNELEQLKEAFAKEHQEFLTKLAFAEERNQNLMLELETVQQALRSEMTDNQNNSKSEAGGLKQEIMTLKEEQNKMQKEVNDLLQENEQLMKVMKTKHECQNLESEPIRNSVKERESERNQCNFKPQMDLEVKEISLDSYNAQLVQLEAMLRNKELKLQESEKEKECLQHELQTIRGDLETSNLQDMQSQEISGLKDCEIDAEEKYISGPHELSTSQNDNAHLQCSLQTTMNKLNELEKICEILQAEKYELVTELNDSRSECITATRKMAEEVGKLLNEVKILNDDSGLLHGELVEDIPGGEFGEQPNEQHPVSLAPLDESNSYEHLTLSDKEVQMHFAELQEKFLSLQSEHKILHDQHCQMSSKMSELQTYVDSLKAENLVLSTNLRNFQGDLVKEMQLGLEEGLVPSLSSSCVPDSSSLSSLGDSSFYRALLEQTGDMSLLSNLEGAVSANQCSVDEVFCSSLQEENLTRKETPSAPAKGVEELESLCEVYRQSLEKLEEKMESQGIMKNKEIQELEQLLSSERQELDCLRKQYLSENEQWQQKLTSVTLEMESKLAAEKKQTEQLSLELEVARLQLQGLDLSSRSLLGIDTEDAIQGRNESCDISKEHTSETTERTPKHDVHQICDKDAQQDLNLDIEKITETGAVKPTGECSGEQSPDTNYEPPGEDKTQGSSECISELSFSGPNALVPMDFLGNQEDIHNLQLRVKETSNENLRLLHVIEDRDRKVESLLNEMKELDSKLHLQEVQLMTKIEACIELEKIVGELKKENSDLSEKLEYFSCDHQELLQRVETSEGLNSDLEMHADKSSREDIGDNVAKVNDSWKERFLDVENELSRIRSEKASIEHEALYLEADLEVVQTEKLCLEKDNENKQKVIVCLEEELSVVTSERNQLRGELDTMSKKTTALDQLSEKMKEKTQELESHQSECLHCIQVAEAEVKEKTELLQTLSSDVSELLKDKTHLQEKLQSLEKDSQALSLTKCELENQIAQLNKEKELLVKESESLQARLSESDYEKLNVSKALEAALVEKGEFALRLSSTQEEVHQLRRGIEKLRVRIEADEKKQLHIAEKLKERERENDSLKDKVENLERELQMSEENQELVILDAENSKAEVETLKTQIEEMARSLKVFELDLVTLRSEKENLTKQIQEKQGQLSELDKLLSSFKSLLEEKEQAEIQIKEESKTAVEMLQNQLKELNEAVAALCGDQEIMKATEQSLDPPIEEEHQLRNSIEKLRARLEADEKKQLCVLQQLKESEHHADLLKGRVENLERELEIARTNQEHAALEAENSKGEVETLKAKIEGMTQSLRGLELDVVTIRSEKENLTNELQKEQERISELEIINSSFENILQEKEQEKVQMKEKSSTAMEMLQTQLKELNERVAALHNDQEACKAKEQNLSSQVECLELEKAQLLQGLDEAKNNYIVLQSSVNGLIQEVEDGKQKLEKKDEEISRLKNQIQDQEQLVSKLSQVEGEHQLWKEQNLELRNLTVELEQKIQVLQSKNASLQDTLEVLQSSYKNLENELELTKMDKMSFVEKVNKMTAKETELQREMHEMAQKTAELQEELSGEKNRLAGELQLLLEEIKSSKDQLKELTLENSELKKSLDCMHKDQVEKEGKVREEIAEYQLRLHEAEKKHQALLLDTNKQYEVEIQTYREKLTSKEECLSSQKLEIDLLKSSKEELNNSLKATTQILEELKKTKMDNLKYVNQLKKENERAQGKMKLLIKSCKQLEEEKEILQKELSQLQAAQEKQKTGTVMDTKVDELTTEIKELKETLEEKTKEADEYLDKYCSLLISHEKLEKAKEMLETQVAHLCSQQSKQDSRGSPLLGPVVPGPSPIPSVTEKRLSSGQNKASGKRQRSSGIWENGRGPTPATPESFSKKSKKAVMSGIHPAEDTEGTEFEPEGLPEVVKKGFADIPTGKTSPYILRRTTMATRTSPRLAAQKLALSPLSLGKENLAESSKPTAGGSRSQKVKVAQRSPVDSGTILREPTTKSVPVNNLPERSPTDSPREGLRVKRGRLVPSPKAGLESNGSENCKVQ
# UniProt Q5VV42: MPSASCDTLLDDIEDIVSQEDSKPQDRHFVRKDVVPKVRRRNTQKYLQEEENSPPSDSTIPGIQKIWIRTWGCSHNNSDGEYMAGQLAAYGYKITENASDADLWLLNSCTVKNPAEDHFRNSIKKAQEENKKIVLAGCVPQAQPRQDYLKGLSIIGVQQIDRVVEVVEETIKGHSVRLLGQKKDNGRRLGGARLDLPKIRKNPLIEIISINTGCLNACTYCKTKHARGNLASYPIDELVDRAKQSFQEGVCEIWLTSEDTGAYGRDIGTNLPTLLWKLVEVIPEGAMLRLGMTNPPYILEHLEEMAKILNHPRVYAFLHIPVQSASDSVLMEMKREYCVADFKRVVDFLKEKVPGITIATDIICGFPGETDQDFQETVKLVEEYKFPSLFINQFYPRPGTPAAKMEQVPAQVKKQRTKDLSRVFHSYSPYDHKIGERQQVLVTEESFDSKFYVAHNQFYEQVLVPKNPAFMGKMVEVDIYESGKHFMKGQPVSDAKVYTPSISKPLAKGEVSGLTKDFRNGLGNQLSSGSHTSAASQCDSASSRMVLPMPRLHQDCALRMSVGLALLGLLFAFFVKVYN
# UniProt Q00535, whole entry, looked up: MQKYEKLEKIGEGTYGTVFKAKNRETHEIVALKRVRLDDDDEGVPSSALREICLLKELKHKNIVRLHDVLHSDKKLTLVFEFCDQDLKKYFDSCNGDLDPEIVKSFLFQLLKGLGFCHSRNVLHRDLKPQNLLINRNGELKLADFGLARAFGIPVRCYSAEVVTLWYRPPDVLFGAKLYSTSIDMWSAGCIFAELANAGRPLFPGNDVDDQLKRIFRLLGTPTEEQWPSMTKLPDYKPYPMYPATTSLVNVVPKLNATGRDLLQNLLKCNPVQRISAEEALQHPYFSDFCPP
# UniProt Q9UPN4: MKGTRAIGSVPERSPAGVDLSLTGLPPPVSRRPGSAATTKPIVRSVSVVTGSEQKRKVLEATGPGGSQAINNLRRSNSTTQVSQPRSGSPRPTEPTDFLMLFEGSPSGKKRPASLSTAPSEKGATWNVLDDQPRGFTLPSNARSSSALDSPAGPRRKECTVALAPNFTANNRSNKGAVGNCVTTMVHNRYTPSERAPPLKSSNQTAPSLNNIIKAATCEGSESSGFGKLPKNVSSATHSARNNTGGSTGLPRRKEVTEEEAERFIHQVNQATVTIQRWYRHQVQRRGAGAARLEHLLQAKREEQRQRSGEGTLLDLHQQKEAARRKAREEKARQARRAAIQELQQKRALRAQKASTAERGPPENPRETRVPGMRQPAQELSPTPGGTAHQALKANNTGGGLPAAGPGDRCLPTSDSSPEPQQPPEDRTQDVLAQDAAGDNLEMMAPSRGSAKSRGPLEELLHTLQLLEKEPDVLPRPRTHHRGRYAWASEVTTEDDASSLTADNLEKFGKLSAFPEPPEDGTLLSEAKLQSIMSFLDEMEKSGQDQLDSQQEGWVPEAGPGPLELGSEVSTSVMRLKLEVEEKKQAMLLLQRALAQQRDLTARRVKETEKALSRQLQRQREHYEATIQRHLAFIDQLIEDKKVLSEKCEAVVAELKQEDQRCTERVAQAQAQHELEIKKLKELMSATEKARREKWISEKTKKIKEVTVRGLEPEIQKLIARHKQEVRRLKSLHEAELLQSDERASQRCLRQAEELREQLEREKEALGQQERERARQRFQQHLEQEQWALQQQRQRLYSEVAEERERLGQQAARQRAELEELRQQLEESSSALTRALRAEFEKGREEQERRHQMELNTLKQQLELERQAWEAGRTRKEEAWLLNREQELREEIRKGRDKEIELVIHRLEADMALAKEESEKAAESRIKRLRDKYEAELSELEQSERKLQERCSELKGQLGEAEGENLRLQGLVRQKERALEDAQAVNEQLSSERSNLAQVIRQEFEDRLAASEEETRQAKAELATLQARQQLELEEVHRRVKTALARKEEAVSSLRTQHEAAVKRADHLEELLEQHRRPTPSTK
# UniProt P48643, whole entry, looked up: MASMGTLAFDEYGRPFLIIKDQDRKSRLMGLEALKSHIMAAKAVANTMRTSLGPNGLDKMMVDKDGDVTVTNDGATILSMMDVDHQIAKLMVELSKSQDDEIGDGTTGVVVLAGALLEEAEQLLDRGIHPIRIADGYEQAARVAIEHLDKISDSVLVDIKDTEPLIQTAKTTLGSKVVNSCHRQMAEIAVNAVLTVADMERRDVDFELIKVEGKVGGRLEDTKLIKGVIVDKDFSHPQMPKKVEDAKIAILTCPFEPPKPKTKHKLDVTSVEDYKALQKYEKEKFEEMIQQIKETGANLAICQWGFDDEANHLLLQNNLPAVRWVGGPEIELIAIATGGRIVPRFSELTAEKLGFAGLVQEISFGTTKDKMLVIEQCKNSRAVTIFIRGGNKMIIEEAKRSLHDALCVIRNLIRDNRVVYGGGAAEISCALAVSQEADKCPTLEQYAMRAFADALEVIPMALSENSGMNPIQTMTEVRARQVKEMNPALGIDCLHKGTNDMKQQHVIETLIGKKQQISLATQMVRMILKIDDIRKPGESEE
# UniProt O95319: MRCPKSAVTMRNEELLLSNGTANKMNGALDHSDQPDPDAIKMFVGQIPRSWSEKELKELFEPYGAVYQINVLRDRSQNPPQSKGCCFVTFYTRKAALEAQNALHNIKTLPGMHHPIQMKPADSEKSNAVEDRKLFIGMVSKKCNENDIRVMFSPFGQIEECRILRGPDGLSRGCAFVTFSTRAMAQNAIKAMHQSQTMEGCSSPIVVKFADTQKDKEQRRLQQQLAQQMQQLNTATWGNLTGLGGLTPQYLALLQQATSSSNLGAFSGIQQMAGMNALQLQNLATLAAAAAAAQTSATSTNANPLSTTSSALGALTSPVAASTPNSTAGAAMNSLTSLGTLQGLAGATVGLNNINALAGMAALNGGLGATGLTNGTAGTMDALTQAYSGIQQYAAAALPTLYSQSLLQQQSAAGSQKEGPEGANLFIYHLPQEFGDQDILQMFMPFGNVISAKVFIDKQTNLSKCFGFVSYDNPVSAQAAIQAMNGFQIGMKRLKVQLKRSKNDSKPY
# UniProt P15529: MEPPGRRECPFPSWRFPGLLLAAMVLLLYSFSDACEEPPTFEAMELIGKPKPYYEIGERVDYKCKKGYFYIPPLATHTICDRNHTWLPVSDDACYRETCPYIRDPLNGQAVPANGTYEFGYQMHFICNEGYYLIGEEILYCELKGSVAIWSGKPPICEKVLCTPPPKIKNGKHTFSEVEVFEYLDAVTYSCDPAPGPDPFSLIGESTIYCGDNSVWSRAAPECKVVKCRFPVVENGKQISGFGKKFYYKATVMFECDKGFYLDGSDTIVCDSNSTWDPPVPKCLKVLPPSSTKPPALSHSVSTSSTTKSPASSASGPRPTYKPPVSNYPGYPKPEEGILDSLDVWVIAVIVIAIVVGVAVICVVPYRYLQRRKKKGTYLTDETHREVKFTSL
# Some of the results follow.
# Compound: CC1Cc2ccccc2N1C(=O)C1CCCN(C1)C(=O)CCl (mixture of isomers) [TRIM25 ligand 11 (diastereomer mixture)]
# Assay: probe-labelled cysteine peptide fold change vs DMSO (competition) (log2 fold change); higher = less target engagement (more negative = stronger competition)
# Details: 50 µM; THP-1; incubation time: 4 h
# 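Note: competitive chemoproteomic profiling in live THP-1 cells with an iodoacetamide desthiobiotin (IA-DTB) probe, comparing probe-labelled peptide intensities in compound-treated cells against DMSO-treated controls.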
row,Target,probe-labelled cysteine peptide fold change
1,CENPF_P49454_339_CRDELVR (UniProt P49454),0.151
2,CCT7_Q99832_511_INALTAASEAACLIVSVDETIK (UniProt Q99832),0.0328
3,CCT4_P50991_379_ITGCASPGK (UniProt P50991),0.0945
4,CENPP_Q6IPU0_22_ACEDPPAPWEEK (UniProt Q6IPU0),-0.0214
5,CDKAL1_Q5VV42_109_ITENASDADLWLLNSCTVK (UniProt Q5VV42),0.141
6,CENPT_Q96BT3_495_YFQHLCDDLEVFAAHAGR (UniProt Q96BT3),0.175
7,CENPU_Q71F23_239_AIGSDTSDIVHIWCPEGMK (UniProt Q71F23),-0.127
8,CDCA4_Q9BXL8_10_CVGHEEDVEGALAGLK (UniProt Q9BXL8),-0.132
9,CDK5_Q00535_117_GLGFCHSR (UniProt Q00535),0.0715
10,CEP131_Q9UPN4_648_CEAVVAELK (UniProt Q9UPN4),-0.0343
11,CDCA2_Q69YH5_790_DCHCLGDVLIENTK (UniProt Q69YH5),-0.258
12,CDKN2AIP_Q9NXV6_24_CDGETDK (UniProt Q9NXV6),-0.0653
13,CCT5_P48643_429_VVYGGGAAEISCALAVSQEADK (UniProt P48643),0.0599
14,CELF2_O95319_85_GCCFVTFYTR (UniProt O95319),-0.0412
15,CD46_P15529_157_GSVAIWSGKPPICEK (UniProt P15529),0.025

# Copied from the list:
# Value of CENPF_P49454_339_CRDELVR (UniProt P49454) under probe-labelled cysteine peptide fold change: 0.151
# Value of CCT5_P48643_429_VVYGGGAAEISCALAVSQEADK (UniProt P48643) under probe-labelled cysteine peptide fold change: 0.0599
